PubChem BioAssay AID1671195, Yale University | 2021
Shown is one part, drawn at random, of about 22,000 reagents. In the full data, about 1,510 (6.9%) are marked active. 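Active includes knockdowns raising or lowering LDL uptake; positive z-scores mean more uptake, negative mean less.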

Test: 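Regulators of LDL receptor activity judged by labelled LDL uptake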 (primary screen)
Cell system: human Huh7 hepatoma cells
Knock-down reagent: siRNA pool against human genes, 18 nM
Time to read-out: about 2 to 2.5 days of knockdown, then 8 h LDL uptake
Treatment: DiI-labelled LDL at 30 µg/ml for 8 h, in lipoprotein-deficient serum medium
Measured: 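Fluorescent LDL signal imaged in cells, scaled to the plate median, robust z-score for each replicate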
Direction: robust z-score: higher = more LDL uptake after knockdown
Call rule: 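Active when two or more replicates show a robust z-score above 2 or below -2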

LOC388210 (retired record) — robust z-score, replicate 1 = -0.171; robust z-score, replicate 2 = -0.334; robust z-score, replicate 3 = -0.1; outcome = inactive
SNED1 — robust z-score, replicate 1 = 0.614; robust z-score, replicate 2 = 0.754; robust z-score, replicate 3 = 0.113; outcome = inactive
DUS2 — robust z-score, replicate 1 = -0.444; robust z-score, replicate 2 = -0.541; robust z-score, replicate 3 = -0.537; outcome = inactive
PREX2 — robust z-score, replicate 1 = 0.354; robust z-score, replicate 2 = 0.54; robust z-score, replicate 3 = -0.0062; outcome = inactive
VWA1 — robust z-score, replicate 1 = -1.04; robust z-score, replicate 2 = -0.905; robust z-score, replicate 3 = -0.56; outcome = inactive
FAM120AOS — robust z-score, replicate 1 = 2.99; robust z-score, replicate 2 = 5.69; robust z-score, replicate 3 = 4.4; outcome = active
TMX1 — robust z-score, replicate 1 = -0.374; robust z-score, replicate 2 = 0.0781; robust z-score, replicate 3 = 0.418; outcome = inactive
ZNF614 — robust z-score, replicate 1 = 2.24; robust z-score, replicate 2 = 1.24; robust z-score, replicate 3 = 0.484; outcome = inactive
AMZ1 — robust z-score, replicate 1 = -1.61; robust z-score, replicate 2 = -1.51; robust z-score, replicate 3 = -1.95; outcome = inactive
BCOR — robust z-score, replicate 1 = 0.945; robust z-score, replicate 2 = 0.261; robust z-score, replicate 3 = 1.62; outcome = inactive
BANK1 — robust z-score, replicate 1 = -0.684; robust z-score, replicate 2 = -0.537; robust z-score, replicate 3 = -0.603; outcome = inactive
SLC45A4 — robust z-score, replicate 1 = -0.0915; robust z-score, replicate 2 = -0.663; robust z-score, replicate 3 = -0.416; outcome = inactive
LOC440123 (retired record) — robust z-score, replicate 1 = 3.7; robust z-score, replicate 2 = 2.74; robust z-score, replicate 3 = 2.57; outcome = active
TNFRSF1A — robust z-score, replicate 1 = 2.46; robust z-score, replicate 2 = 1.15; robust z-score, replicate 3 = 3.21; outcome = active
CAMK2G — robust z-score, replicate 1 = 0.446; robust z-score, replicate 2 = -0.0955; robust z-score, replicate 3 = 2; outcome = inactive
LOC253662 (retired record) — robust z-score, replicate 1 = -0.507; robust z-score, replicate 2 = -0.516; robust z-score, replicate 3 = -0.359; outcome = inactive
OR4D5 — robust z-score, replicate 1 = 1.48; robust z-score, replicate 2 = 1.71; robust z-score, replicate 3 = 1.7; outcome = inactive
FGFR2 — robust z-score, replicate 1 = 0; robust z-score, replicate 2 = -0.479; robust z-score, replicate 3 = -0.704; outcome = inactive
HMGN2 — robust z-score, replicate 1 = 1.69; robust z-score, replicate 2 = 1.78; robust z-score, replicate 3 = 2.05; outcome = inactive
SFSWAP — robust z-score, replicate 1 = -0.832; robust z-score, replicate 2 = 0.164; robust z-score, replicate 3 = -1.85; outcome = inactive
DCAF4L2 — robust z-score, replicate 1 = -0.0371; robust z-score, replicate 2 = 2.95; robust z-score, replicate 3 = -0.172; outcome = inactive
LOC442474 (retired record) — robust z-score, replicate 1 = 1.05; robust z-score, replicate 2 = 1.31; robust z-score, replicate 3 = 1.17; outcome = inactive
LINC02762 — robust z-score, replicate 1 = -0.479; robust z-score, replicate 2 = 0.0274; robust z-score, replicate 3 = -0.55; outcome = inactive
DCAF16 — robust z-score, replicate 1 = 0.384; robust z-score, replicate 2 = -0.353; robust z-score, replicate 3 = 0.43; outcome = inactive
